Results are given in words; binding and its absence hold for the method and conditions named. Some results given as binding are weak or reduced against the parent protein; the word gives no strength.
Target: biotinylated UV-DDB complex (DDB1/FA-DDB2) (human) (UniProt Q16531+Q92466)
Test: pull-down; biotinylated UV-DDB complex (60 ng) held on streptavidin-coated paramagnetic beads, incubated on ice for 1 h with XPC/RAD23B/centrin-2 complex (30 ng); 25 mM Tris-HCl pH 7.5, 1 mM EDTA, 0.1 M NaCl, 10% glycerol, 1 mM DTT, 0.01% Triton X-100; immunoblot; both purified

Protein sequences, listed by entry. Tags and fused reporters are not part of them. Lines headed by an entry give the natural chain unless they say otherwise; changes in a name come on top.
UniProt Q16531: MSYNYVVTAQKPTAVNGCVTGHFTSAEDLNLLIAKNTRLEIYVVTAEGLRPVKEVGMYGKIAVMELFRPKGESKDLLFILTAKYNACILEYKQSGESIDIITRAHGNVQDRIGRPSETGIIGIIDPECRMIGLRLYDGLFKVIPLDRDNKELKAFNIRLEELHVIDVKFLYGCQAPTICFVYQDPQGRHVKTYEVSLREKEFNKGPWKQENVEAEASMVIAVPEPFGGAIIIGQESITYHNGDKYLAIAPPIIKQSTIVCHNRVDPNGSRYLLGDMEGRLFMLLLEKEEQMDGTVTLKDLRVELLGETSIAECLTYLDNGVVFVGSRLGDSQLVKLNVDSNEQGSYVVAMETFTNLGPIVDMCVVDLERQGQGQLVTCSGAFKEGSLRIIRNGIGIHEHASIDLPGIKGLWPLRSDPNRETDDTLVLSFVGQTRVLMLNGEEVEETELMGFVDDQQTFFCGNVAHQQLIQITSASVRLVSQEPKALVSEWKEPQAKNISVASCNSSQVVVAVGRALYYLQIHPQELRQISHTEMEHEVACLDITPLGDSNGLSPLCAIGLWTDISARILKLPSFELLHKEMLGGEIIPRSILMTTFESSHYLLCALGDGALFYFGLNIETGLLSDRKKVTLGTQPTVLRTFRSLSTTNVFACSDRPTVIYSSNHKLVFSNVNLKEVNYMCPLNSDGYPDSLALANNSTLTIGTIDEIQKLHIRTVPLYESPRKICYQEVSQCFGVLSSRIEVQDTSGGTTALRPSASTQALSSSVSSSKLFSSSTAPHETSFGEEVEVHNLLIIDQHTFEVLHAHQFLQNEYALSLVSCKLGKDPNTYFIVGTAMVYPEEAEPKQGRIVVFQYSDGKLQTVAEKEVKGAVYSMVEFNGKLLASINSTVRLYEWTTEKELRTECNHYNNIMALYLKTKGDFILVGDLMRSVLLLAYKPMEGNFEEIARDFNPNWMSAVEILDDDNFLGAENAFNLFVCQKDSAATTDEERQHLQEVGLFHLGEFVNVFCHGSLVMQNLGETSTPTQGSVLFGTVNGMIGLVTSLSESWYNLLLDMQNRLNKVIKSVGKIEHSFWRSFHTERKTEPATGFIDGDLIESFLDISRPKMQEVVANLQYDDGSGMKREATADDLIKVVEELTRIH
UniProt Q92466: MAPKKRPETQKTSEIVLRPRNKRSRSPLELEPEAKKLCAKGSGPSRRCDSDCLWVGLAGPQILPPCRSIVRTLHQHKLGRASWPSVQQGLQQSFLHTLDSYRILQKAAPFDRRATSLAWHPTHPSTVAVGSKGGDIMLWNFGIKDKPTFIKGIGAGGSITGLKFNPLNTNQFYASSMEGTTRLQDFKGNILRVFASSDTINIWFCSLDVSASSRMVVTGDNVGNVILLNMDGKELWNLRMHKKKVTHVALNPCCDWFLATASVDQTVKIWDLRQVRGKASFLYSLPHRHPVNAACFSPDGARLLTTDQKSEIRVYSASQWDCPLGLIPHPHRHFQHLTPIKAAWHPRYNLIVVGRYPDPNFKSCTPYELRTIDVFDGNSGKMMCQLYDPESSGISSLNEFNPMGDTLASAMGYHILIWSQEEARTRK
UniProt Q01831: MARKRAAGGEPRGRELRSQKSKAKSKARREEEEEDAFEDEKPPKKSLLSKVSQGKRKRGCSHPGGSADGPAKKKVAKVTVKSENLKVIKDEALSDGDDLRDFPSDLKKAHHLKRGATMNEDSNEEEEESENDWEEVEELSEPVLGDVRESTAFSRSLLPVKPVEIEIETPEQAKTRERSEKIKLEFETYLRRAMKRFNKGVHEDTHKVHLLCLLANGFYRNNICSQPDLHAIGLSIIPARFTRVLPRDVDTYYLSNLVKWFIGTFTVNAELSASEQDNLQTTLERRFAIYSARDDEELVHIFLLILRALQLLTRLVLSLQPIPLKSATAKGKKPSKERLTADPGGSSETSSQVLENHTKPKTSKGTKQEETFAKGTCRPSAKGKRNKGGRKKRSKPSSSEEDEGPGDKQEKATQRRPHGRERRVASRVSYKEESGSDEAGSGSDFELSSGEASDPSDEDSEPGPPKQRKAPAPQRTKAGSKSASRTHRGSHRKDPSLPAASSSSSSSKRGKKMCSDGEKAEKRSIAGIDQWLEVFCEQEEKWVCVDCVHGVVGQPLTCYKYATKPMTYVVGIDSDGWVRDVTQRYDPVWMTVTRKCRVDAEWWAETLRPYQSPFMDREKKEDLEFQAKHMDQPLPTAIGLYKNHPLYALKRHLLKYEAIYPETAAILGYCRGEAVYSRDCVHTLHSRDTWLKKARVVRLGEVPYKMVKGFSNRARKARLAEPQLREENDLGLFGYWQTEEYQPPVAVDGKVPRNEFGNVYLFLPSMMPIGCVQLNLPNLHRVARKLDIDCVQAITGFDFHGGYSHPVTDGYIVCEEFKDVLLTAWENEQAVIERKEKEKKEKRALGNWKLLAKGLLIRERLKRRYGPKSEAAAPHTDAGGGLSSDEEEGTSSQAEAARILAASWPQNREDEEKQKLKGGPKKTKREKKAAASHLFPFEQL

Question: For “XPC/RAD23B/centrin-2 complex (XPC 3KR: K81R, K89R, K183R) (from UniProt Q01831 1-940; P54727 1-409; P41208 1-172)”, which binding is on record?
Answer: The binding was “binds”.

Question: Which binding does the source give for “XPC/RAD23B/centrin-2 complex (XPC WT) (from UniProt Q01831 1-940; P54727 1-409; P41208 1-172)” here?
Answer: The binding was “binds”.

— paper PMC4455304
